# Measurements from patent US20070050862A1, “Promoter and methods of use in plants” (priority 2005, published 2007).
# System: Arabidopsis roots
# Assay: Root growth, morphology and gravity response of seedlings on hormone-supplemented media
# Type: in vivo, Arabidopsis thaliana
SMILES,Root morphology compared to control plates (10 days on MS plates containing 10 μM ACC),"Direction of root growth on horizontal plates (gravitropic response) (plates supplemented with 1 μM NPA, control roots penetrated the agar)"
"NC1(C(=O)O)CC1 [ACC, 1 aminocyclo-propane-1 carboxylic acid]","significantly shorter, more branched and had a considerable increase in root hair density",–
"O=C(O)c1ccccc1C(=O)Nc1cccc2ccccc12 [NPA, N-1-naphthylphthalamic acid]",–,grew along the surface of the agar
